Data as given in PubChem BioAssay AID1508588 (Peter MacCallum Cancer Centre, 2020)

Aim: 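Which gene losses make BRAF-mutant melanoma cells more responsive to vemurafenib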 (primary screen)
System: human WM266.4 melanoma cells (BRAF V600 mutant)
Knock-down reagent: siRNA pool against human genes, 40 nM
Timing: 96 h from transfection to read-out
Challenge: vemurafenib 300 nM (about IC25), added 48 h after transfection, for 48 h; comparison arm got DMSO vehicle only
Measured: 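Cell gain (DAPI nuclei at end minus before drug, mean of two replicates) and medium lactate by absorbance per cell, both as ratio to non-targeting siRNA, also grouped into fold-change classes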
Reading the numbers: cell gain with vemurafenib: higher = more cell gain than with non-targeting siRNA; lactate per cell with vemurafenib: higher = more lactate made per cell
Rule for the call: 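Enhancement is called by pairing each knock-down's vehicle-arm and drug-arm fold-change classes for viability or glycolysis; which class combinations qualify is not given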
Meaning of the calls: active = enhances vemurafenib effect; inactive = no enhancement seen
The whole screen tested about 18,000 reagents; shown is an unselected part. In the full data, 790 (4.4%) are marked active. 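Calls rest on a combination of fold-change classes in drug and vehicle arms, not all shown here.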 A number with no mark means an inactive call. Reagents against one gene are numbered here.

IFIH1 (interferon induced with helicase C domain 1)
- cell gain with vemurafenib: 0.19
- lactate per cell with vemurafenib: 0.91

PAX7 (paired box 7)
- cell gain with vemurafenib: 0.87
- lactate per cell with vemurafenib: 0.47

OR2H2 (olfactory receptor family 2 subfamily H member 2)
- cell gain with vemurafenib: 0.95
- lactate per cell with vemurafenib: 1.03

MILR1 (mast cell immunoglobulin like receptor 1)
- cell gain with vemurafenib: 0.16
- lactate per cell with vemurafenib: 1.46

SLIT3 (slit guidance ligand 3)
- cell gain with vemurafenib: 0.46
- lactate per cell with vemurafenib: 0.92

LIMD2 (LIM domain containing 2)
- cell gain with vemurafenib: 0.8
- lactate per cell with vemurafenib: 0.68

CX3CR1 (C-X3-C motif chemokine receptor 1)
- cell gain with vemurafenib: 0.06
- lactate per cell with vemurafenib: 1.17

IZUMO1 (izumo sperm-oocyte fusion 1)
- cell gain with vemurafenib: 0.68
- lactate per cell with vemurafenib: 0.51

RSPO3 (R-spondin 3)
- cell gain with vemurafenib: 0.12
- lactate per cell with vemurafenib: 0.56

SPOP (speckle type BTB/POZ protein)
- cell gain with vemurafenib: 0.67
- lactate per cell with vemurafenib: 1.02

PJVK (pejvakin)
- cell gain with vemurafenib: 0.37
- lactate per cell with vemurafenib: 1.08

ZNF771 (zinc finger protein 771)
- cell gain with vemurafenib: 0.35
- lactate per cell with vemurafenib: 1.02

COMMD2 (COMM domain containing 2)
- cell gain with vemurafenib: 0.51
- lactate per cell with vemurafenib: 0.94

RNF213 (ring finger protein 213) #1
- cell gain with vemurafenib: 0.58
- lactate per cell with vemurafenib: 1.13

RNF213 (ring finger protein 213) #2
- cell gain with vemurafenib: 0.68
- lactate per cell with vemurafenib: 0.82

HSD17B7 (hydroxysteroid 17-beta dehydrogenase 7)
- cell gain with vemurafenib: 0.99
- lactate per cell with vemurafenib: 0.68

Reformatted: entries from further up.
IFIH1 (interferon induced with helicase C domain 1) | cell gain with vemurafenib: 0.19; lactate per cell with vemurafenib: 0.91
PAX7 (paired box 7) | cell gain with vemurafenib: 0.87; lactate per cell with vemurafenib: 0.47
OR2H2 (olfactory receptor family 2 subfamily H member 2) | cell gain with vemurafenib: 0.95; lactate per cell with vemurafenib: 1.03
MILR1 (mast cell immunoglobulin like receptor 1) | cell gain with vemurafenib: 0.16; lactate per cell with vemurafenib: 1.46

Next results:
ACBD6 (acyl-CoA binding domain containing 6)
- cell gain with vemurafenib: 0.69
- lactate per cell with vemurafenib: 1.06

ADORA1 (adenosine A1 receptor)
- cell gain with vemurafenib: 0.27
- lactate per cell with vemurafenib: 1.14

ALS2 (alsin Rho guanine nucleotide exchange factor ALS2)
- cell gain with vemurafenib: 0.28
- lactate per cell with vemurafenib: 0.4

ZNF22-AS1 (ZNF22 antisense RNA 1)
- cell gain with vemurafenib: 0.66
- lactate per cell with vemurafenib: 0.69

CD164 (CD164 molecule)
- cell gain with vemurafenib: 0.62 (active)
- lactate per cell with vemurafenib: 0.18

QTRT2 (queuine tRNA-ribosyltransferase accessory subunit 2)
- cell gain with vemurafenib: 0.4
- lactate per cell with vemurafenib: 0.89

NTSR2 (neurotensin receptor 2)
- cell gain with vemurafenib: 0.29
- lactate per cell with vemurafenib: 2.53

CCT6A (chaperonin containing TCP1 subunit 6A)
- cell gain with vemurafenib: 0.74
- lactate per cell with vemurafenib: 0.86

MLLT1 (MLLT1 super elongation complex subunit)
- cell gain with vemurafenib: 0.61
- lactate per cell with vemurafenib: 1.19

TMEM107 (transmembrane protein 107)
- cell gain with vemurafenib: 0.17
- lactate per cell with vemurafenib: 2.63

EPS8 (EGFR pathway substrate 8, signaling adaptor)
- cell gain with vemurafenib: 0.97
- lactate per cell with vemurafenib: 0.5
